Results taken from US20080161223A1, “Spirobornyl-2,4-(1,3-Dioxanes)] And Their Uses As Fragrance Ingredients” (GIVAUDAN SA, priority 2005, published 2008).

Experiment: Odour description (olfactory evaluation of the compound)

For `CCC1OCC(C)C2(CC3CCC2(C)C3(C)C)O1` (racemic) [Compound 1l, (1RS,2SR,2′RS/SR,4RS,5′RS/SR)-2′-Ethyl-1,5′,7,7-tetramethylspiro[bicyclo[2.2.1]-heptane-2,4′-[1,3]dioxane]], the Odour description was “woody, ambery, fruity, carrot, sweet”.
In the case of `C[C@H]1COC(C)(C)O[C@@]12C[C@H]1CC[C@]2(C)C1(C)C` [Compound 1o, (1R,2S,4R,5′S)-1,2′,2′,5′,7,7-hexamethylspiro[bicyclo[2.2.1]heptane-2,4′-[1,3]dioxane]], the Odour description is reported as “woody, ambery, camphoraceous, earthy/mossy”.
For `CC(C)[C@H]1OC[C@@H](C)[C@]2(C[C@H]3CC[C@]2(C)C3(C)C)O1` [Compound 1k, (1R,2S,2′S,4R,5′R)-2′-isopropyl-1,5′,7,7-tetramethylspiro[bicyclo[2.2.1]heptane-2,4′-[1,3]dioxane]], the Odour description was “fruity, animalic, woody, touch ambrette seeds”.
For `CC(C)C1OCC(C)C2(CC3CCC2(C)C3(C)C)O1` (racemic) [Compound 1n, (1RS,2SR,2′RS/SR,4RS,5′RS/SR)-2′-isopropyl-1,5′,7,7-tetramethylspiro [bicyclo[2.2.1]heptane-2,4′-[1,3]dioxane]], the Odour description was “fruity, woody, green”.
In the case of `C[C@H]1OC[C@H](C)[C@]2(C[C@H]3CC[C@]2(C)C3(C)C)O1` (single isomer, unassigned) [Compound 1b], the Odour description is reported as “ambery, woody, dry, sweet, animalic”.
With `CC1OC[C@H](C)[C@]2(C[C@H]3CC[C@]2(C)C3(C)C)O1` (mixture of isomers) [Compound 1a, (1R,2S,2′R/S,4R,5′S)-1,2′,5′,7,7-Pentamethylspiro[bicyclo[2.2.1]heptane-2,4′-[1,3]dioxane]] the Odour description was “woody, ambery, fruity, rich, sweet”.
In the case of `C[C@H]1OC[C@@H](C)[C@]2(C[C@H]3CC[C@]2(C)C3(C)C)O1` [Compound 1d, (1R,2S,2′S,4R,5′R)-1,2′,5′,7,7-Pentamethylspiro[bicyclo[2.2.1]heptane-2,4′-[1,3]dioxane]], the Odour description is reported as “ambery, woody, balsamic, green”.
For `CC1OCC(C)C2(CC3CCC2(C)C3(C)C)O1` (racemic) [Compound 1e, (1RS,2SR,2′RS/SR,4RS,5′RS/SR)-1,2′,5′,7,7-Pentamethylspiro[bicyclo[2.2.1]heptane-2,4′-[1,3]dioxane]], the Odour description was “ambery, woody, earthy/mossy, fruity”.
With `CC1OCC(C)C2(CC3CCC2(C)C3(C)C)O1` (racemic) [Compound 1f, (1RS,2SR,2′RS/SR,4RS,5′RS/SR)-1,2′,5′,7,7-Pentamethylspiro[bicyclo[2.2.1]heptane-2,4′-[1,3]dioxane]] the Odour description was “woody, fruity, ambery”.
For `CC1OC(C)(C)OC2(CC3CCC2(C)C3(C)C)C1C` (racemic) [Compound 1s, (1RS,2SR,4RS,5′RS/SR,6′RS/SR)-1,2′,2′,5′,6′,7,7-Heptamethylspiro[bicyclo[2.2.1]heptane-2,4′-[1,3]dioxane]], the Odour description was “Woody, earthy/mossy, cedarwood”.
In the case of `CC(C)[C@@H]1OC[C@H](C)[C@]2(C[C@H]3CC[C@]2(C)C3(C)C)O1` [Compound 1j, (1R,2S,2′R,4R,5′S)-2′-Isopropyl-1,5′,7,7-tetramethylspiro[bicyclo[2.2.1]heptane-2,4′-[1,3]dioxane]], the Odour description is reported as “ambery, woody, green, floral”.
In the case of `CCC1OC(C)OC2(CC3CCC2(C)C3(C)C)C1C` (racemic) [Compound 1t, (1RS,2SR,2′RS/SR,4RS,5′RS/SR,6′RS/SR)-6′-Ethyl-1,2′,5′,7,7-pentamethylspiro[bicyclo[2.2.1]heptane-2,4′-[1,3]dioxane]], the Odour description is reported as “woody, fruity, green, pine, eucalyptus, cedarwood”.
For `C[C@@H]1OC[C@H](C)[C@]2(C[C@H]3CC[C@]2(C)C3(C)C)O1` (single isomer, unassigned) [Compound 1c], the Odour description was “dry, woody, cedarwood, ambery, warm, powdery”.
For `CCC1OC(C)(C)O[C@@]2(C[C@H]3CC[C@]2(C)C3(C)C)C1C` (mixture of isomers) [Compound 1u, (1RS,2SR,4RS,5′RS/SR,6′RS/SR)-6′-Ethyl-1,2′,2′,5′,7,7-hexamethylspiro[bicyclo[2.2.1]heptane-2,4′-[1,3]dioxane]], the Odour description was “floral, sweet, woody, cedarwood aspect”.
For `CC(C)[C@H]1OC[C@H](C)[C@]2(C[C@H]3CC[C@]2(C)C3(C)C)O1` [Compound 1i, (1R,2S,2′S,4R,5′S)-2′-Isopropyl-1,5′,7,7-tetramethylspiro[bicyclo[2.2.1]heptane-2,4′-[1,3]dioxane]], the Odour description was “woody, ambery, sweet, dry, cedarwood, creamy”.
In the case of `CC(C)C1OCC(C)C2(CC3CCC2(C)C3(C)C)O1` (racemic) [Compound 1m, (1RS,2SR,2′RS/SR,4RS,5′SR)-2′-isopropyl-1,5′,7,7-tetramethylspiro[bicyclo[2.2.1]-heptane-2,4′-[1,3]dioxane]], the Odour description is reported as “ambery, woody, fruity, rich”.
With `CC1OC(C)C(C)C2(CC3CCC2(C)C3(C)C)O1` (racemic) [Compound 1r, (1RS,2SR,2′RS/SR,4RS,5′RS/SR,6′RS/SR)-1,2′,5′,6′,7,7-Hexamethylspiro[bicyclo[2.2.1]heptane-2,4′-[1,3]dioxane]] the Odour description was “Woody, fruity, ambery, sweet, cedarwood”.
In the case of `C[C@@H]1COC(C)(C)O[C@@]12C[C@H]1CC[C@]2(C)C1(C)C` [Compound 1p, (1R,2S,4R,5′R)-1,2′,2′,5′,7,7-hexamethylspiro[bicyclo[2.2.1]heptane-2,4′-[1,3]dioxane]], the Odour description is reported as “woody, agrestic, ambery, earthy/mossy, dry, cedarwood aspect”.
For `CCC1COC(C)O[C@@]12C[C@H]1CC[C@]2(C)C1(C)C` (mixture of isomers) [Compound 1v, (1RS,2SR,2′RS/SR,4RS,5′RS/SR)-5′-Ethyl-1,2′,7,7-tetramethylspiro[bicyclo[2.2.1]heptane-2,4′-[1,3]dioxane]], the Odour description was “woody, ambery, fruity, slightly carrot-like”.
In the case of `CC1COC(C)(C)OC12CC1CCC2(C)C1(C)C` (racemic) [Compound 1q, (1RS,2SR,4RS,5′RS/SR)-1,2′,2′,5′,7,7-Hexamethylspiro[bicyclo[2.2. 1]heptane-2,4′-[1,3]dioxane]], the Odour description is reported as “earthy/mossy, woody, vetiver aspect”.
With `CC[C@@H]1OC[C@H](C)[C@]2(C[C@H]3CC[C@]2(C)C3(C)C)O1` [Compound 1h, (1R,2S,2′R,4R,5′S)-2′-Ethyl-1,5′,7,7-tetramethylspiro[bicyclo[2.2.1]heptane-2,4′-[1,3]dioxane]] the Odour description was “woody, green”.
In the case of `CC[C@H]1OC[C@H](C)[C@]2(C[C@H]3CC[C@]2(C)C3(C)C)O1` [Compound 1g, (1R,2S,2′S,4R,5′S)-2′-Ethyl-1,5′,7,7-tetramethylspiro[bicyclo[2.2.1]heptane-2,4′-[1,3]dioxane]], the Odour description is reported as “woody, ambery, green, sweet, floral”.
